These are yes or no findings as the source states them, for the method shown. Binding seen in cells or lysates may run through a third protein. Some entries that bind do so weakly or less than the wild type.

The chains behind the UniProt entries cited, without tags or fusion partners. Where a name states a change or a piece, a line headed by the entry shows the natural chain unless it says otherwise. Residues count along the entry.
UniProt Q9H9B1: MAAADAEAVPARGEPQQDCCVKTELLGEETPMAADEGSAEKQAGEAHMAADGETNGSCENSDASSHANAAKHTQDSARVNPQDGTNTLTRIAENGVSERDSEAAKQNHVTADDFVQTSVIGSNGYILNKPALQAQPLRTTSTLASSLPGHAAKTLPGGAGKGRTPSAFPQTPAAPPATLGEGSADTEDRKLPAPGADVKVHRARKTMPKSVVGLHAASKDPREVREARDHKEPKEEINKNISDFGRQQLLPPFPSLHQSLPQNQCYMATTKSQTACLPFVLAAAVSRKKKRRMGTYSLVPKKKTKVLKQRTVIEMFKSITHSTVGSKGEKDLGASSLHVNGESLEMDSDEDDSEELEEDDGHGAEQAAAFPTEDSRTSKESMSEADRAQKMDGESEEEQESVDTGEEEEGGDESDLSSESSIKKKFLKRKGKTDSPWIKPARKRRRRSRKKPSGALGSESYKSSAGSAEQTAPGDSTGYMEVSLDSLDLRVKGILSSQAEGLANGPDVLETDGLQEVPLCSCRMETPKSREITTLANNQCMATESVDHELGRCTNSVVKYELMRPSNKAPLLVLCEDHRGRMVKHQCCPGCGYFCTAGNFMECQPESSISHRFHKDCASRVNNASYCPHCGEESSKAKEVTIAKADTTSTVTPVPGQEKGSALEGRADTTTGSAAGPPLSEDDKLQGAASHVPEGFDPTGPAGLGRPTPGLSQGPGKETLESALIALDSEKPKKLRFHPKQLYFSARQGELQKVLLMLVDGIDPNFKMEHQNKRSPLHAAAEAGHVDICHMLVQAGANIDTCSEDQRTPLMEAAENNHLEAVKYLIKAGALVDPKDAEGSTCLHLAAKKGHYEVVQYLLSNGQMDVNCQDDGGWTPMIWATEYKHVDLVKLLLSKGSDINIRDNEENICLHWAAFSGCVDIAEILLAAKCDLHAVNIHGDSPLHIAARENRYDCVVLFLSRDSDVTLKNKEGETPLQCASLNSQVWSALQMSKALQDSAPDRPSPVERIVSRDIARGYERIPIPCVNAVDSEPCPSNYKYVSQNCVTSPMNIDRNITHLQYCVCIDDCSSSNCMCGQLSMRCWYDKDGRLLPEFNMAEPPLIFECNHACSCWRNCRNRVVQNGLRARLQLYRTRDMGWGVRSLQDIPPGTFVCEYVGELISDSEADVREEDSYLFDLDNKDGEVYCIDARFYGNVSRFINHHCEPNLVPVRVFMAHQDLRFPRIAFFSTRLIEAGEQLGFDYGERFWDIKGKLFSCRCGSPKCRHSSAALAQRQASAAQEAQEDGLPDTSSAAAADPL
endogenous GLP of A549 cells: residues 2-1298 of Q9H9B1
UniProt Q96KQ7: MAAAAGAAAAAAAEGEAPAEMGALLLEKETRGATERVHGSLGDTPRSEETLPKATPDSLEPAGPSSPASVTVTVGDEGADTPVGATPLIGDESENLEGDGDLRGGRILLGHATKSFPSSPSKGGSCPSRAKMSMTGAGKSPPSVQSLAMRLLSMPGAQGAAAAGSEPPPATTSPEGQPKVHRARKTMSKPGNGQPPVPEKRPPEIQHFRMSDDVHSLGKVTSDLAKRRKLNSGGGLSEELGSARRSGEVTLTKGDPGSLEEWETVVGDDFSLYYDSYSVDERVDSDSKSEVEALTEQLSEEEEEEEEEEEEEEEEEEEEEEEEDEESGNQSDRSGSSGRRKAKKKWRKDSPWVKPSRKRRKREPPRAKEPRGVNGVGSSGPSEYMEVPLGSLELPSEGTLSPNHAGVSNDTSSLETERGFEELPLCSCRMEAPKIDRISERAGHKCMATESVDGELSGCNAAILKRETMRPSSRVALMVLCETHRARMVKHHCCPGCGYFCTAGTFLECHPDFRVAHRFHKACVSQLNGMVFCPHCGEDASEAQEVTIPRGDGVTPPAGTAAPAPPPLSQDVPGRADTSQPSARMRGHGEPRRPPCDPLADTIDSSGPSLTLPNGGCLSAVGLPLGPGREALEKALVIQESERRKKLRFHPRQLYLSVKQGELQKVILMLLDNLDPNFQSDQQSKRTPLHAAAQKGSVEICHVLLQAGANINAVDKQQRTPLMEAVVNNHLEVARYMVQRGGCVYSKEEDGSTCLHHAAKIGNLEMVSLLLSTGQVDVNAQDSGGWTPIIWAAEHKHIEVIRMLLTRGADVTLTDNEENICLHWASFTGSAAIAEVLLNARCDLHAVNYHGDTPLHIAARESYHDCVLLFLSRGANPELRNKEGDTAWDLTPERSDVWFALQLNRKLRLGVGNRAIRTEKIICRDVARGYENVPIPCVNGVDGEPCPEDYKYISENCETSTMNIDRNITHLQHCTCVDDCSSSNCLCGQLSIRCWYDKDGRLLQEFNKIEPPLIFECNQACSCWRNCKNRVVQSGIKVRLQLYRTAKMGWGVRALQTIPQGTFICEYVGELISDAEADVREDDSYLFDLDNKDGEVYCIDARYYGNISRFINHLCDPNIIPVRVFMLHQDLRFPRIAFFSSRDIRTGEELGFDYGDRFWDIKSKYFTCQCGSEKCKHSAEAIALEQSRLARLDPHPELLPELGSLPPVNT
UniProt Q13185, residues 2-183: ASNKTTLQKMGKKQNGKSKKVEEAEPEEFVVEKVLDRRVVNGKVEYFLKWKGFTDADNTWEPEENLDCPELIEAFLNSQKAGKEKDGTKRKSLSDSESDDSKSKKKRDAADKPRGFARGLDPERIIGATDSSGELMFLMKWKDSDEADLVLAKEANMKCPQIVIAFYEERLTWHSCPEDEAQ
UniProt Q61026, residues 5-1462: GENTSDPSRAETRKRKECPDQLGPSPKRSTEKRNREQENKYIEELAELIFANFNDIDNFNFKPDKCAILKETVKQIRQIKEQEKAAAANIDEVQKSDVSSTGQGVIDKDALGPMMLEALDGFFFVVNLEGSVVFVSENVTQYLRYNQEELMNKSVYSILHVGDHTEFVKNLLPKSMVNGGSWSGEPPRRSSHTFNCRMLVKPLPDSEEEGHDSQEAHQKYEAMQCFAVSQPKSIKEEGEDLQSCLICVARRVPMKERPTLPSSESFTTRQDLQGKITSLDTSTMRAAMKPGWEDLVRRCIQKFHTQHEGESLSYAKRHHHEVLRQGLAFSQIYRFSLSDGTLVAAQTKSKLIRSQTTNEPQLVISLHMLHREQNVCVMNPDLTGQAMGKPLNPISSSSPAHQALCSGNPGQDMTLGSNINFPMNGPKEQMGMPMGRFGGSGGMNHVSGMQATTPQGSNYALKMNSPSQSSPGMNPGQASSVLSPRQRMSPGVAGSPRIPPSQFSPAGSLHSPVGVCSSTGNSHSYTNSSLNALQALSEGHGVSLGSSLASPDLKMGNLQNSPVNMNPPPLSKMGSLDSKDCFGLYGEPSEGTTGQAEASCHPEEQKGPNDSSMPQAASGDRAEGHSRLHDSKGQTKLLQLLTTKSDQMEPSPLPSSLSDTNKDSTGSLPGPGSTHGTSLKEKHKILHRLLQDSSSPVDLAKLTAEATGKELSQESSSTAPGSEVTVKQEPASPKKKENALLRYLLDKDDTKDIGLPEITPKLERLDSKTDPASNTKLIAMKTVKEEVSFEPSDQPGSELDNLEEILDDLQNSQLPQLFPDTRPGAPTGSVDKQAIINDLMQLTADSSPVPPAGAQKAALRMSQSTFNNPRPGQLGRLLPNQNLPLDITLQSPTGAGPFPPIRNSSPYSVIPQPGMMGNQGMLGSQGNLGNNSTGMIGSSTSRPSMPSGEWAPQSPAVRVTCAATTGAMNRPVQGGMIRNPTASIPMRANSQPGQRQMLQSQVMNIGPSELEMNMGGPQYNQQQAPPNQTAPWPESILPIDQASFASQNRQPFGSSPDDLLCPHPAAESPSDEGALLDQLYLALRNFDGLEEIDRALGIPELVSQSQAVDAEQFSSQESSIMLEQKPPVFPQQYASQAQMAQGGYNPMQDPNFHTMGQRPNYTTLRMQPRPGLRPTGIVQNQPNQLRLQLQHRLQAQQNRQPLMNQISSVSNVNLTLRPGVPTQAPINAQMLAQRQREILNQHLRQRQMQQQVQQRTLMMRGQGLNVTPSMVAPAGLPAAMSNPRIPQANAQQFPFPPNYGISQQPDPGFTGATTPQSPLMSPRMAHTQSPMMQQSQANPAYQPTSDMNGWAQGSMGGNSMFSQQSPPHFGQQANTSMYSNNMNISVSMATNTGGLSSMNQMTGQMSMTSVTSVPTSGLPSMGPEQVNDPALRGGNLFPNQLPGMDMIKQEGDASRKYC
UniProt P04150: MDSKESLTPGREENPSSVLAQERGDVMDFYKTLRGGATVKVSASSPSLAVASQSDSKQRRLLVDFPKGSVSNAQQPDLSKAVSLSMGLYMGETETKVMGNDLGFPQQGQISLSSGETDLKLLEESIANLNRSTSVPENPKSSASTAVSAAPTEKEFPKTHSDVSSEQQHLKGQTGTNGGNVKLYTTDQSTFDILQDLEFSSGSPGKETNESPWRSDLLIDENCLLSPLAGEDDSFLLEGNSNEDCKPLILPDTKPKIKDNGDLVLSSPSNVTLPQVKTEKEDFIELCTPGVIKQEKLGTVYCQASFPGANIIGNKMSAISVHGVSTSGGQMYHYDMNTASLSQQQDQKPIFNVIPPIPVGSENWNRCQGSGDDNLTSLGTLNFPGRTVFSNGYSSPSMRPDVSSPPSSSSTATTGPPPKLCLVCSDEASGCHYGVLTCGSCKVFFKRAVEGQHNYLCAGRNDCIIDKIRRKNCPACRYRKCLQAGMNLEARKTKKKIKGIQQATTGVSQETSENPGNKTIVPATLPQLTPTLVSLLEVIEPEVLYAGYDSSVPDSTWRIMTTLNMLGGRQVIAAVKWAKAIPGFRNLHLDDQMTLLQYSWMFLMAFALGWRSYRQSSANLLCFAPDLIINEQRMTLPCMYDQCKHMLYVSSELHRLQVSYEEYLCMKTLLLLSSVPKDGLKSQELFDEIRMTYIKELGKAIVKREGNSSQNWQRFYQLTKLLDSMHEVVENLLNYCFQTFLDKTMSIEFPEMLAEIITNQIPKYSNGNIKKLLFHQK

Test [1] has as its target full length HA-hGLP wild type (human) (UniProt Q9H9B1). Description: proximity ligation assay (HA and HP1γ antibodies), A549 rtta cells.
The target of test [2] is full length HA-hGLP K205R mutant (human) (UniProt Q9H9B1). Description: proximity ligation assay (HA and HP1γ antibodies), A549 rtta cells; weaker than wild type.
Test [3] deals with full length flag-hG9a K185R mutant (human) (UniProt Q96KQ7). Description: co-immunoprecipitation with HA antibody from Cos-7 lysates, flag blot.
The target of test [4] is full length flag-hG9a wild type (human) (UniProt Q96KQ7). The test is described as above.
Test [5] addresses HA-hG9a K185A mutant (human) (UniProt Q96KQ7). Put plainly: co-immunoprecipitation with GR antibody from Cos-7 lysates, HA blot.
Test [6] has as its target full length HA-hG9a K185R mutant (human) (UniProt Q96KQ7). The description is as above.
The target in test [7] is endogenous GLP of A549 cells (human) (UniProt Q9H9B1). Put plainly: co-immunoprecipitation of endogenous proteins from A549 lysates, anti-GLP IP, anti-GR blot.

Consider “heterochromatin protein 1 gamma (HP1γ), endogenous protein of A549 cells (from UniProt Q13185 2-183)”, for which the binding result in test [1] and in test [2] was “binds” throughout.

For the substance HA-Grip1 (from UniProt Q61026 5-1462), the binding entry in test [3] and in test [4] was “binds” throughout.

With “glucocorticoid receptor (GR) (from UniProt P04150 1-777)”, the binding result in test [5], in test [6] and in test [7] was “binds” throughout.

Values taken from patent US20200181284A1, “EPIGENETIC INHIBITORS FOR SENSITIZING HEMATOLOGIC OR OTHER MALIGNANCIES TO GLUCOCORTICOID THERAPY” (UNIVERSITY OF SOUTHERN CALIFORNIA, priority 2017, published 2020).
